From article PMC13523842
No constants are given. Whether binding was seen depends on the method and setting. Binding seen in cells or lysates may run through a third protein. Some entries that bind do so weakly or less than the wild type.

Tests used:
[1] = target: T1, Aubergine (Aub), endogenous (Drosophila melanogaster (endogenous in ovaries)) (UniProt O76922); test: co-IP; Aub precipitated with anti-Aub antibodies from heterozygous control ovary lysate; blot for Spn-E; no-antibody negative control
T1 sequence: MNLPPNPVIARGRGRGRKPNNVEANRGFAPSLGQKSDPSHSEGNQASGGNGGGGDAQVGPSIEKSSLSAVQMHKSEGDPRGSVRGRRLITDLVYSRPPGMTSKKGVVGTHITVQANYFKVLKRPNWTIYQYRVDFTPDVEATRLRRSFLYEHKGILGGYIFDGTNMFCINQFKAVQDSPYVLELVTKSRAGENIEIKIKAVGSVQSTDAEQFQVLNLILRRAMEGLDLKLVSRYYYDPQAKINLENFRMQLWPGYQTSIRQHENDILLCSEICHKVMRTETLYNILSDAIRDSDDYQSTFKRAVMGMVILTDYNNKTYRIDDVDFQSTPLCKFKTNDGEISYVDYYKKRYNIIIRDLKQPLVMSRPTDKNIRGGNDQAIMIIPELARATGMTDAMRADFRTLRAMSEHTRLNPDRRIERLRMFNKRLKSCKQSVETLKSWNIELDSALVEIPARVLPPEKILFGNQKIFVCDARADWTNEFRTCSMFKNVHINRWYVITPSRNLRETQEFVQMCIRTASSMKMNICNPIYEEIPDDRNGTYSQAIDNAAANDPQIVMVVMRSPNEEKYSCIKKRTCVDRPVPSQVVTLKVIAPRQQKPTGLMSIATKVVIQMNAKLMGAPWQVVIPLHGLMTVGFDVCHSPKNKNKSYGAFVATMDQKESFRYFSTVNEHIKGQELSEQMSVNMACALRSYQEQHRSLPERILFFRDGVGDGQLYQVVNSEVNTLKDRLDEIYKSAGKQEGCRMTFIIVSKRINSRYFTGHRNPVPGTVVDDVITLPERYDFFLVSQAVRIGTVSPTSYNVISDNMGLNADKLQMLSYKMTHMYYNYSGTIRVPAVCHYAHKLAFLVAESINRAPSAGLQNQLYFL

[2] = target: T1, Aubergine (Aub), endogenous (Drosophila melanogaster (endogenous in ovaries)); test: co-IP; Aub precipitated with anti-Aub antibodies from squ^PP32/HE47 mutant ovary lysate; blot for Spn-E; no-antibody negative control

binding [1]: binds weakly | binding [2]: binds
B1: Spindle-E (Spn-E), endogenous (protein, UniProt Q9VF26 1-1434)
chain: MDQEVMDFFDFSKELKRVAAAPQGYISSDPRLMATKFKSSEVPNRELIGTDYVSKIVAKEKCLLNGTLLNEQPQGKRIRTLDDLDTDDEGEETEIRRDDEYYKKFRFNLNRDKNLSIYAKREEILAAINAHPVVIIKGETGCGKTTQVPQYILDEAYKSGKYCNIVVTQPRRIAAISIANRVCQEREWQQNTVCSFQVGLHRPNSLEDTRLLYCTTGVLLNNLINNKTLTHYTHIVLDEVHERDQNMDFLLIVVRRLLATNSRHVKIILMSATIDAKELSDYFTTTNSIPPVITTNHRRKHSIEKFYRDQLGSIIWNEEDVGHQQVPEINKHGYRAAVKIIVIIDNMERKAAIQSRQSYDEALRYGAVLIFLPGIYEIDTMAENLTCMLENDPNIKVSIVRCFSLMTPENQRDVFNPPPPGFRKIILTTNIAESSITVPDVSYVIDFCLAKVKVTDTASSFSSLRLTWASKANCRQRAGRVGRLRSGRVYRMVNKHFYQREMPEFGIPEMLRLPLQNSVLKAKVLNMGSPVEILALALSPPNLSDIHNTILLLKEVGALYLTVDGIYDPLDGDLTYWGTIMSRLPLDTRQSRLIILGYIFNMLEEAIIIAAGLSTPGLFAHEGGRSQLGDSFWMHYIFSDGSGSDLVAIWRVYLTYLNIVENGHDQESAIRWAKRFHVSLRSLKEIHLLVQELRVRCTHLGLIPFPVNPNQMMDDREKAIMLKVIIAGAFYPNYFTRSKESCADTDRNIYQTISGHDPCRTVYFTNFKPAYMGELYTRRIKELFQEVRIPPENMDVTFQEGSQKVFVTFKQDDWIEGSSKYVPVSGRVQSEVYKAVMMRQNRVERPIHIMNPSAFMSYVQQRGIGDVIEGRWIPPTKPLNVELLALPSVFDKTISGSITCIVNCGKFFFQPQSFEECIRNMSEIFNAPQQLRNYVTNASAIAKGMMVLAKRDSYFQRATVIRPENQSNRQPMFYVRFIDYGNCTLLPMQLMRLMPRELTEQYGDLPPRVFECRLAMVQPSSVVSGNNRWSTAANDMLKTVAQCGLIDIEVYSLFNNVAAVLIHMRDGIINDKLVELMLCRRSDEDYMSRKDHDFRLRRQESARNLSTAQRQQINEEYLRSCQLPQDHDLPPPPLEKCKTVVMLKGPNSPLECTMRSITRVGLSKRVNIDHLSVNALLLDADPQDHHDHLIVAHEIAESRNGQTLTARGTTLMPNVQGFGALMVMLFSPTMQLKCNKEGTSYVSVLGGLGCDPDTNEPYFAEHDVLINLDVNILEDDVILINQIRYYIDSVFFNFKEENNPAVSVNERVSIYTQLRSLINRLLCKDRRYIERNMSNADFEWETNPELPLPNEPFGKRAIFPMHSLTELQEEDTGRLVQLRENCSMLHKWRNFEGTLPHMTCKLCNQLLESVPQLRLHLLTILHRDREKQIDYCNQ
